Values joined by “and” are separate entries in the source; they are usually repeats but may differ in a detail not shown here. Equal entries are not always repeated. The list shows a part of the results. Shown are side measurements of this screen, not its main read-out; they come without a call. The list favours compounds with an active or inconclusive main result. Words in brackets tell the shape of the fitted curve; partial curves, single points and poor fits give uncertain potencies.
Test: IkB Signaling
Settings: ABC-DLBCL IkBa-CBG/CBR dual luciferase ratio (green luciferase fused to IkBa over red control in OCI-Ly3 lymphoma cells), 4 h; measured here: control luc red channel unless noted
Outline: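 Luminescence ratio of IκBα-fused green versus native red beetle luciferase in OCI-Ly3 cells, 4 h post-doxycycline with compound; red signal alone, scaled from basal (0%) to zero light (-100%), flagged nonspecific or cytotoxic effects.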

SMILES | AC50
Cc1ccccc1NC(=O)c1ccc(CNS(=O)(=O)c2ccc3c(c2)C(C)(C)C(=O)N3C)cc1 | 3.16 µM [falling, single point]
O=C(NCc1ccccn1)c1nn(-c2ccccc2Cl)nc1CO | 25.1 µM [falling, partial curve, poor fit]
Cc1nc2sc3c(c2c2nnc(SCC(=O)NCc4ccco4)n12)CCCC3 | 31.6 µM [falling, partial curve]
CCN(CC)C(=O)C1=C(C)Nc2nc3ccccc3n2C1c1ccc(Cl)cc1 (stereo not given) | 31.6 µM [falling, partial curve]
Cc1ccc(Cl)cc1N(C)C(=O)c1cc2ccc3cccnc3c2[nH]1 | 25.1 µM [falling, single point]
CC(=O)OC/C=C(C)/C=C/C=C(C)/C=C/C1=C(C)CCCC1(C)C | 39.8 µM [rising, partial curve, poor fit] [measured here: IkB-luc green channel]
CCCCOc1ccc(C(=O)NCCc2csc3nc(-c4ccccc4F)nn23)cc1 | 25.1 µM [falling, partial curve]
CCOc1ccccc1C(=O)NCC(c1ccc(N(C)C)cc1)N1CCCC1 (stereo not given) | 20 µM [falling, partial curve]
Clc1ccc2c(c1)N=C(N1CCNCC1)c1ccccc1N2 | 39.8 µM [falling, partial curve]
CCn1c(CN2CCN(C)CC2)nc2cc(NC(=O)c3cc(OC)c(OC)c(OC)c3)ccc21 | 39.8 µM [falling, single point]
CCOc1ccccc1C1Nc2ccccc2-c2nnc(SCc3ccccc3)nc2O1 (stereo not given) | 12.6 µM [falling, partial curve]
C=CCn1c(SCC(=O)c2ccc(OC)cc2)nnc1C(C)NC(=O)c1cccs1 (stereo not given) | 12.6 µM [falling, partial curve]
COCCCn1c(=N)c(C(=O)NC2CCCC2)cc2c(=O)n3cc(C)ccc3nc21 | 39.8 µM [falling, single point]
COc1ccc(CCCc2nnc(SCC(=O)Nc3ccc(Cl)cc3)o2)cc1 | 3.98 µM [falling, full curve]
CCc1ccccc1NC(=O)c1ccc2[nH]c(C)c(C)c2c1 | 2.51 µM [rising, full curve, poor fit]
COc1ccc(-c2cc(-c3cccs3)c(C#N)c(SCC(=O)NCc3ccco3)n2)cc1 | 2 µM [rising, full curve]
Cc1ccccc1CN1C(=O)C(O)(CC(=O)c2cccc(Br)c2)c2ccccc21 (stereo not given) | 12.6 µM [falling, partial curve]
COC(=O)c1[nH]c2cccc(OC)c2c1NC(=O)CCN1CCN(c2cccc(Cl)c2)CC1 | 15.8 µM [falling, partial curve]
CCOc1ccccc1N(CC)C(=O)c1cc2c(=O)n(CC)c3ccccc3c2s1 | 3.16 µM [falling, full curve]
Cc1ccc(CN(C(=O)c2ccc([N+](=O)[O-])cc2)c2ccccn2)cc1 | 39.8 µM [falling, single point]

Sorted by formula weight (rising): part of the list above
SMILES | AC50
CCc1ccccc1NC(=O)c1ccc2[nH]c(C)c(C)c2c1 | 2.51 µM [rising, full curve, poor fit]
O=C(NCc1ccccn1)c1nn(-c2ccccc2Cl)nc1CO | 25.1 µM [falling, partial curve, poor fit]
Cc1ccc(Cl)cc1N(C)C(=O)c1cc2ccc3cccnc3c2[nH]1 | 25.1 µM [falling, single point]

Additional records:

SMILES | AC50
Cc1ccc(OCC(=O)Nc2ccccc2C(=O)OCc2cc(=O)n3c(C)csc3n2)cc1 | 3.16 µM [falling, full curve]
CC(C(=O)NCc1ccc(Cl)cc1)n1ccc2cc(S(=O)(=O)N3CCCC3)ccc21 (stereo not given) | 25.1 µM [falling, partial curve]
Cc1cc(C)cc(NS(=O)(=O)c2ccc3[nH]cc(C(=O)NCc4ccco4)c(=O)c3c2)c1 | 2.51 µM [falling, partial curve] and 3.16 µM [falling, partial curve]
CN(c1ccccc1)S(=O)(=O)c1cc(C(=O)N2CCN(c3ccccn3)CC2)ccc1Cl | 15.8 µM [falling, partial curve]
CCC(O)c1nc2ccccc2n1CCOc1cc(C)cc(C)c1 (stereo not given) | 0.501 µM [rising, partial curve]
Cc1ccc(-c2cc(C(=O)Nc3cc(C)on3)c3ccccc3n2)c(C)c1 | 10 µM [falling, partial curve]
CCOc1ccccc1C(=O)Nc1cc2c(cc1N1CCCCC1)n(C)c(=O)n2C | 39.8 µM [falling, single point]
COc1ccc(NC(=O)CSc2n[nH]c(-c3ccccc3)n2)cc1Cl | 0.1 µM [falling, partial curve]
Cc1cc(C)nc(N(C#N)CN2C(=O)c3ccccc3S2(=O)=O)n1 | 3.98 µM [rising, partial curve] [measured here: IkB-luc green channel]
OC(CCN1CCOCC1)(c1ccc(Cl)cc1)C1CCCCC1 (stereo not given) | 31.6 µM [falling, single point] [measured here: IkB-luc green channel]
Cc1cccc(NC(=O)C2CCCN(S(=O)(=O)c3cccc4cccnc34)C2)c1 (stereo not given) | 20 µM [falling, partial curve]
CC(C)Oc1cccc(-n2c(CCc3c[nH]c4ccc(Br)cc34)nc3ccccc3c2=O)c1 | 15.8 µM [falling, partial curve]
COC(=O)c1ccc(NC(=O)C2CCN(S(=O)(=O)c3ccc4c(c3)CCCN4C(C)=O)CC2)cc1 | 0.1 µM [falling, full curve, poor fit]
COc1cc(NC(=O)CSc2nc3nc(C)c(Cc4ccccc4)c(C)n3n2)cc(OC)c1OC | 25.1 µM [falling, partial curve]
CCc1nnc2n1N(C(C)=O)C(c1ccc(C(C)(C)C)cc1)=C(C(C)=O)S2 | 20 µM [falling, partial curve]
Cc1ccc(NC(=O)NC(=O)CN2C(=O)NC3(CCc4ccccc43)C2=O)c(C)c1 (stereo not given) | 25.1 µM [falling, partial curve]
CCOC(=O)c1cc2c(=O)n3ccccc3nc2n(CC2CCCO2)c1=NC(=O)c1cc(C)cc(C)c1 (stereo not given) | 3.98 µM [falling, full curve]
CCOc1cc(NC(=O)c2ccco2)c(OCC)cc1NC(=O)c1cc(OC)c(OC)c(OC)c1 | 0.794 µM [falling, full curve, poor fit]
Cc1[nH]c2ccccc2c1C1(O)C(=O)N(Cc2ccc(Cl)cc2)c2ccccc21 (stereo not given) | 25.1 µM [falling, partial curve]
CCc1cccc(C)c1Nc1c(-c2cccc(O)c2)nc2sccn12 | 12.6 µM [falling, partial curve]

SMILES | AC50
COc1cc(-c2nnc(SCC(=O)Nc3cccc(C#N)c3)o2)cc(OC)c1OC | 7.94 µM [falling, full curve]
CCOC(=O)C1CCCN(S(=O)(=O)c2ccc3c(c2)N(C)C(=O)CC(=O)N3C)C1 (stereo not given) | 15.8 µM [falling, partial curve]
Cc1cccc(NC(=O)CSc2nnc(-c3cc(C)n(-c4ccccc4)c3C)o2)c1C | 15.8 µM [falling, partial curve]
CC(C)(C)Nc1c(N)c(=O)oc2ccccc12 | 20 µM [falling, partial curve]
CCOc1ccc(-n2c(=O)c3sc4ccccc4c3n(Cc3ccc(F)cc3)c2=O)cc1 | 0.158 µM [rising, full curve]
CC(C)c1cnc2c(c1SCC(=O)Nc1cccc([N+](=O)[O-])c1)c(=O)n(C)c(=O)n2C | 20 µM [falling, partial curve]
CCCCC(CC)Cn1c(Oc2ccccc2)nc2c1c(=O)n(C)c(=O)n2C (stereo not given) | 12.6 µM [falling, partial curve]
Cc1cc(C)c(NC(=O)C(=O)NCC(c2cccnc2)N2CCN(c3ccccc3F)CC2)c(C)c1 (stereo not given) | 25.1 µM [falling, single point]
CCc1cccc(NC(=O)c2cc3c(s2)-c2ccccc2OC3)c1 | 0.0794 µM [falling, full curve]
CC(=O)Nc1cccc(NC(=O)CSc2nccn2C2CCCC2)c1 | 39.8 µM [falling, single point]
Cc1ccc(CNC(=O)c2cc3c(-c4ccc(Cl)cc4)nn(C)c3s2)o1 | 3.16 µM [falling, partial curve]
CN(Cc1ccccc1)c1ccc(-c2nc(-c3ccccc3)no2)cc1[N+](=O)[O-] | 20 µM [falling, partial curve]
COC(=O)c1ccc2c(=O)n3nc(Nc4cc(OC)ccc4OC)sc3nc2c1 | 0.316 µM [falling, full curve, poor fit]
CCOc1cc(S(=O)(=O)N2CCN(Cc3ccccc3)CC2)ccc1Br | 10 µM [falling, partial curve]
CCC(Sc1ncc(S(=O)(=O)c2ccc(Cl)cc2)c(=O)[nH]1)C(=O)Nc1ccc(OC)cc1 (stereo not given) | 0.01 µM [falling, full curve, poor fit]
Cc1ccc2[nH]c(=O)c3cc(C(=O)N(CCCOC(C)C)Cc4ccco4)sc3c2c1 | 0.1 µM [falling, full curve]
COc1ccc(Cl)cc1NC(=O)CSc1nnc2[nH]c(=O)cc(-c3ccccc3)n12 | 0.631 µM [falling, full curve]
CCC(c1nnnn1C1CCCC1)N(Cc1cccs1)Cc1cc2cc(C)ccc2[nH]c1=O (stereo not given) | 20 µM [falling, partial curve]
COc1ccccc1N1CCN(C(=O)c2ccc3c(=O)n(Cc4ccco4)c(=S)[nH]c3c2)CC1 | 12.6 µM [falling, partial curve]
CN(CC(=O)Nc1ccc(Br)cc1)S(=O)(=O)c1cccc2nsnc12 | 25.1 µM [falling, single point]
